Test results as given in PubChem BioAssay AID493014 (National Center for Advancing Translational Sciences (NCATS), 2011).
The list shows a part of the results. Shown are side measurements of this screen, not its main read-out; they come without a call. Most of these compounds were active or inconclusive in the main read-out, so they are no random draw. Potencies come from curve fits of mixed quality, noted in brackets.

Test: qHTS Assay to Find Inhibitors of Chronic Active B-Cell Receptor Signaling
Settings: ABC-DLBCL IkBa-CBG/CBR reporter, luminescence ratio (green luciferase fused to IkBa over red control in TMD8 lymphoma cells), 4 h
Summary of the method: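 Concentration-response series (up to 46 uM) were applied to TMD8 dual-reporter cells for 4 h at 37C with doxycycline. Green/red ratio, after filter-overlap correction, defined %Activity; red signal alone was normalised to basal cells and zero luminescence.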

[1] = measured here: CBR red luminescence, cell number
[2] = measured here: IkBa-CBG green luminescence

| SMILES | AC50 [1] | AC50 [2] |
| --- | --- | --- |
| NCC(O)COc1ccc2c(c1)OCO2 (stereo unspecified) | 29.1 µM [rising, single point] |  |
| COc1ccc(Cl)cc1NC(=O)C/C(C)=N/NC(=O)c1ccc(O)cc1 | 0.2 µM [falling, full curve, poor fit] |  |
| CCc1ccc(C(=O)Nc2ccc3c(c2)n(C)c(=O)n3C)cc1 | 35.5 µM [rising, single point] | 15.8 µM [falling, single point] |
| O=C(N/N=C/c1cc(Br)c(O)c(Br)c1)c1cc2c(ccc3ccccc32)o1 | 17.8 µM [falling, single point] |  |
| Cc1ccc(C)c(NC(=S)NC(C)C(c2ccccc2)N2CCN(C)CC2)c1 (stereo unspecified) | 17.8 µM [falling, single point] |  |
| COc1ccc(C2(O)CCN(C(=O)NC3CCCCC3)CC2)cc1 | 0.891 µM [rising, full curve, poor fit] |  |
| C[C@@]12C(=O)Nc3ccc(F)cc3C(=O)N1[C@H]1c3cc(Cl)ccc3OC[C@@H]1[C@@H]2c1ccccc1 | 2.59 µM [falling, full curve] | 3.26 µM [rising, full curve] |
| COc1cc(C(=O)NCCOc2cc(C)ccc2C(C)C)cc(OC)c1OC | 11.2 µM [falling, single point] |  |
| Cc1ccccc1-n1nc(C)c2cc(C(=O)NCc3cccnc3)sc21 | 20.6 µM [falling, partial curve, poor fit] |  |
| COc1cccc(Nc2ncnc3c2cnn3-c2cccc(C)c2)c1 | 0.631 µM [falling, partial curve, poor fit] |  |
| COc1cccc(C(=O)Nc2nnc(-c3cccs3)s2)c1 | 1.64 µM [falling, full curve] |  |
| COc1cc(CN2CCN(Cc3ccco3)CC2)cc(OC)c1 | 12.6 µM [falling, single point] |  |
| COC(=O)c1ccc(N=NNc2cccc(Br)c2)cc1 | 0.326 µM [falling, full curve] |  |
| CN(CCc1ccccn1)C(=S)Nc1ccc(Cl)c(Cl)c1 | 6.31 µM [rising, single point] |  |
| CC1CCN(S(=O)(=O)c2ccc(NC(=O)c3ccncc3)cc2)CC1 | 35.5 µM [falling, single point] |  |
| Cc1ccccc1CSc1nn2c(=O)c(C)nnc2s1 | 0.447 µM [falling, full curve, poor fit] |  |
| Clc1ccc(CSc2nnc(-c3sccc3-n3cccc3)o2)cc1 | 31.6 µM [rising, single point] |  |
| CCN(CC(=O)Nc1ccc(N2CCOCC2)cc1)CC(=O)NC(C)(C)C | 11.2 µM [rising, partial curve] |  |
| CCn1cc2nc(SCC(=O)Nc3ccc(OC)c(OC)c3)n(Cc3ccc(OC)cc3)c(=O)c2n1 | 35.5 µM [falling, single point] |  |
| Oc1ccc(Nc2nc(-c3ccccc3F)nc3ccccc23)cc1 | 12.6 µM [falling, partial curve, poor fit] |  |
| N/C(=N\NC(=O)c1ccccc1)c1cc2ccccc2oc1=O | 7.94 µM [falling, partial curve, poor fit] |  |

| SMILES | AC50 [1] | AC50 [2] |
| --- | --- | --- |
| O=S(=O)(NC1=NCCCCC1)c1ccc2sc(NS(=O)(=O)c3ccc4ccccc4c3)nc2c1 | 22.4 µM [rising, single point] |  |
| S=C(NC1CCCCC1)c1ccc2c(c1)OCO2 | 6.31 µM [rising, single point] |  |
| COC(=O)c1c(NC(=O)C2CC=CCC2C(=O)O)sc(C)c1C (stereo unspecified) | 20.6 µM [falling, partial curve, poor fit] |  |
| COc1cccc(C=O)c1OCCCOc1cccc2cccnc12 | 4.47 µM [rising, full curve] | 11.2 µM [falling, partial curve, poor fit] |
| COc1ccc(C2NC(=O)C(C#N)=C(S)N2c2ccc(C)cc2)cc1OC (stereo unspecified) | 15.8 µM [rising, single point] | 20 µM [falling, single point] |
| CCOC(=O)C1CCN(C(=O)COC(=O)CNC(=O)c2ccc(C(C)(C)C)cc2)CC1 | 23.1 µM [falling, partial curve, poor fit] |  |
| O=C(Nc1ccc(C(F)(F)F)cc1)C1CC(=O)N(c2ccc3c(c2)OCCO3)C1 (stereo unspecified) | 20.6 µM [falling, single point] |  |
| CSc1ccccc1OCc1cc(C(=O)N2C[C@H]3CC[C@H]2C3)no1 | 12.6 µM [rising, partial curve, poor fit] |  |
| NCCc1nc(-c2ccccc2)cs1 | 2.51 µM [rising, full curve, poor fit] |  |
| Cc1nc2ccc3nc(NC(=O)c4ccc5c(c4)OCCO5)sc3c2s1 | 0.794 µM [falling, full curve] |  |
| Cc1cc(-c2ccc(N=Nc3c(S(=O)(=O)O)cc4cc(S(=O)(=O)O)cc(N)c4c3O)c(C)c2)ccc1N=Nc1c(S(=O)(=O)O)cc2cc(S(=O)(=O)O)cc(N)c2c1O | 3.66 µM [falling, full curve] |  |
| Cc1cc(C)n(-c2nc(NCCO)c3c4c(sc3n2)CCCC4)n1 | 0.0517 µM [rising, full curve, poor fit] |  |
| Cc1cc(NC(=S)N(Cc2ccc(Br)cc2)Cc2ccc(C(=O)O)cc2)ccc1Cl | 35.5 µM [falling, single point] | 17.8 µM [rising, partial curve, poor fit] |
| Cc1nc2cc(NC(=O)N3CCC(c4ccccc4)C3)ccc2n1C (stereo unspecified) | 0.0164 µM [rising, full curve, poor fit] |  |
| COC(=O)c1ccc(Cn2nc(-c3ccc(C)c(C)c3)ccc2=O)cc1 | 17.8 µM [rising, single point] |  |
| CCOC(=O)C(C)(C)N(Cc1cccc(C)c1)S(=O)(=O)c1ccc(Cl)c([N+](=O)[O-])c1 | 29.1 µM [falling, single point] |  |
| COc1cc(/C=C/C(=O)N2CCN(Cc3ccccc3)CC2)cc(OC)c1OC | 0.708 µM [rising, full curve, poor fit] |  |
| C#CCn1cc(/C=N/NC(=O)COc2cccc3cccnc23)c2ccccc21 | 29.1 µM [rising, single point] |  |
| O=c1[nH]c(-c2ccccc2)nnc1-c1ccccc1 | 0.355 µM [falling, full curve] |  |
| CCCOC(=O)c1ccc(-n2nnnc2SCC(=O)N2CCCCC2)cc1 | 10 µM [falling, partial curve] |  |
| O=C(N/N=C/c1ccccc1O)c1cccc(C(F)(F)F)c1 | 1.84 µM [falling, partial curve, poor fit] |  |

| SMILES | AC50 [1] | AC50 [2] |
| --- | --- | --- |
| O=C(NCC1CCCN1S(=O)(=O)c1cccs1)C(=O)Nc1ccc(F)cc1 (stereo unspecified) | 8.2 µM [falling, partial curve] |  |
| C=C1C(=O)O[C@H]2C[C@]3(C)C([C@@H](OC(=O)/C(C)=C/C)[C@H]12)[C@](C)(O)CC[C@H]3O (stereo partly specified) | 8.91 µM [falling, partial curve, poor fit] |  |
| CCN(C[C@H]1N[C@@](Cc2ccccc2)(C(=O)OC)[C@H]2C(=O)N(C)C(=O)[C@@H]12)S(=O)(=O)c1ccc(OC(F)(F)F)cc1 | 29.1 µM [falling, single point] |  |
| Nc1ccc(-c2nc3cc(N)ccc3s2)cc1 | 0.794 µM [rising, full curve, poor fit] |  |
| C/C(=N\NC(=O)c1c[nH]c2ccccc12)c1ccccn1 | 12.6 µM [falling, partial curve, poor fit] |  |
| CCCCn1c(CCC)nc([N+](=O)[O-])c1Sc1ccc(Cl)cn1 | 13 µM [falling, partial curve] |  |
| COCCNC(=O)/C(C#N)=C/c1cccc(/C=C(\C#N)C(=O)NCCOC)c1 |  | 18.4 µM [falling, single point] |
| C[C@H](CO)N1C[C@H](C)[C@@H](CN(C)S(=O)(=O)c2ccccc2)Oc2ccc(NC(=O)C3CC3)cc2C1=O | 0.0184 µM [rising, full curve] |  |
| Cc1nc(-c2nnc(-c3ccccc3)o2)c(C(F)(F)F)o1 | 35.5 µM [falling, single point] |  |
| C=CCOc1ccc(CN(C)C(=O)CNC(=O)c2ccc(-c3ccccc3)cc2)cc1 | 11.2 µM [falling, partial curve] |  |
| O=C(Nc1cccc(NC(=O)c2ccc(-c3ccc(Br)cc3)o2)c1)c1ccco1 | 8.2 µM [falling, partial curve] |  |
| O=C(Nc1cccc(S(=O)(=O)N2CCOCC2)c1)c1ccc(N2CCCC2=O)cc1 | 6.51 µM [rising, single point] |  |
| O=C(CSc1nnc(Cc2cccs2)n1C1CCCCC1)N1CCCc2ccccc21 | 16.4 µM [falling, single point] |  |
| CC(=O)CCc1c(C)c2cc(C)ccc2[nH]c1=O | 18.4 µM [rising, partial curve, poor fit] |  |
| CCCOc1ccc(-c2nn(-c3ccccc3)cc2/C=C2\SC(=S)N(C3CCS(=O)(=O)C3)C2=O)cc1 (stereo unspecified) | 35.5 µM [rising, single point] |  |
| COc1cc(Br)ccc1C1CC(=O)C(C)C(c2ccc(Br)cc2OC)N1 (stereo unspecified) |  | 20 µM [rising, partial curve, poor fit] |
| CCn1c(CC(=O)Nc2ccccc2)nnc1SCC(=O)Nc1ccccc1C(=O)OC | 6.51 µM [rising, single point] |  |
| COc1cc(C(=O)NC(=S)NCc2ccco2)cc(OC)c1OC | 3.16 µM [falling, full curve, poor fit] |  |
| Cc1ccc2c(c1)c(N=Nc1cccc(C(=O)O)c1)c(O)n2C | 2.24 µM [falling, full curve] |  |

Of the compounds above, these have a furan ring, fused or not.

| SMILES | AC50 [1] | AC50 [2] |
| --- | --- | --- |
| O=C(N/N=C/c1cc(Br)c(O)c(Br)c1)c1cc2c(ccc3ccccc32)o1 | 17.8 µM [falling, single point] |  |
| COc1cc(CN2CCN(Cc3ccco3)CC2)cc(OC)c1 | 12.6 µM [falling, single point] |  |
| O=C(Nc1cccc(NC(=O)c2ccc(-c3ccc(Br)cc3)o2)c1)c1ccco1 | 8.2 µM [falling, partial curve] |  |
| COc1cc(C(=O)NC(=S)NCc2ccco2)cc(OC)c1OC | 3.16 µM [falling, full curve, poor fit] |  |
